Reference: publication PMC7992845
These are yes or no findings as the source states them, for the method shown. Binding seen in cells or lysates may run through a third protein. Some entries that bind do so weakly or less than the wild type.

Protein sequences, listed by entry. Tags and fused reporters are not part of them. Residues count along the entry.
UniProt P11142: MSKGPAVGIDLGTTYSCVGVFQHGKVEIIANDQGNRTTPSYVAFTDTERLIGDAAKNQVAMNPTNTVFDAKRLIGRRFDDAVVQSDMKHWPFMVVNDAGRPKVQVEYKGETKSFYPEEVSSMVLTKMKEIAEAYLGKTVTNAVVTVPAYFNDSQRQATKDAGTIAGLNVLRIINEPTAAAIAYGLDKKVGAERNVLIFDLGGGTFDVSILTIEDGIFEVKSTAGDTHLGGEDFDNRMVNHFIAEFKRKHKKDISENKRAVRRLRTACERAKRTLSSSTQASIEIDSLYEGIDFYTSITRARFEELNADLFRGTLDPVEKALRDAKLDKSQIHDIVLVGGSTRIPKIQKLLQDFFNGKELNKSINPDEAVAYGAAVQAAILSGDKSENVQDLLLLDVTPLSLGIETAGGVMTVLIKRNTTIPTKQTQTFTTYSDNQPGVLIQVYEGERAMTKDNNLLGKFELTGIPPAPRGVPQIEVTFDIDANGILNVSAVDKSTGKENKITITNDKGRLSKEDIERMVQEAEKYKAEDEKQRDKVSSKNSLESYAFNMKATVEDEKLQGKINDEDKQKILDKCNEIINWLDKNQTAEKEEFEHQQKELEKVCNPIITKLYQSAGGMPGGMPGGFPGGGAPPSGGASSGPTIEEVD
UniProt P13473, residues 29-410: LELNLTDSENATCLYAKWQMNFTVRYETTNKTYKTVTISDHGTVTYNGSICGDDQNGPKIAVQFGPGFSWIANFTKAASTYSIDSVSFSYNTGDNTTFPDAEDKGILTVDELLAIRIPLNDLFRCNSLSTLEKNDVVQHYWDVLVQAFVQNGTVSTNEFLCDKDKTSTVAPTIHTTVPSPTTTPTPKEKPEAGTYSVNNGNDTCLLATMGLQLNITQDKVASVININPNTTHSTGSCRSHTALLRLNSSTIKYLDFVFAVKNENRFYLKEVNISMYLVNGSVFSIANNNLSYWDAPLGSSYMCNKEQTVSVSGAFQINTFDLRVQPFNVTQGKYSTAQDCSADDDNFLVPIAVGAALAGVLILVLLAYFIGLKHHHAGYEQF
UniProt O75376: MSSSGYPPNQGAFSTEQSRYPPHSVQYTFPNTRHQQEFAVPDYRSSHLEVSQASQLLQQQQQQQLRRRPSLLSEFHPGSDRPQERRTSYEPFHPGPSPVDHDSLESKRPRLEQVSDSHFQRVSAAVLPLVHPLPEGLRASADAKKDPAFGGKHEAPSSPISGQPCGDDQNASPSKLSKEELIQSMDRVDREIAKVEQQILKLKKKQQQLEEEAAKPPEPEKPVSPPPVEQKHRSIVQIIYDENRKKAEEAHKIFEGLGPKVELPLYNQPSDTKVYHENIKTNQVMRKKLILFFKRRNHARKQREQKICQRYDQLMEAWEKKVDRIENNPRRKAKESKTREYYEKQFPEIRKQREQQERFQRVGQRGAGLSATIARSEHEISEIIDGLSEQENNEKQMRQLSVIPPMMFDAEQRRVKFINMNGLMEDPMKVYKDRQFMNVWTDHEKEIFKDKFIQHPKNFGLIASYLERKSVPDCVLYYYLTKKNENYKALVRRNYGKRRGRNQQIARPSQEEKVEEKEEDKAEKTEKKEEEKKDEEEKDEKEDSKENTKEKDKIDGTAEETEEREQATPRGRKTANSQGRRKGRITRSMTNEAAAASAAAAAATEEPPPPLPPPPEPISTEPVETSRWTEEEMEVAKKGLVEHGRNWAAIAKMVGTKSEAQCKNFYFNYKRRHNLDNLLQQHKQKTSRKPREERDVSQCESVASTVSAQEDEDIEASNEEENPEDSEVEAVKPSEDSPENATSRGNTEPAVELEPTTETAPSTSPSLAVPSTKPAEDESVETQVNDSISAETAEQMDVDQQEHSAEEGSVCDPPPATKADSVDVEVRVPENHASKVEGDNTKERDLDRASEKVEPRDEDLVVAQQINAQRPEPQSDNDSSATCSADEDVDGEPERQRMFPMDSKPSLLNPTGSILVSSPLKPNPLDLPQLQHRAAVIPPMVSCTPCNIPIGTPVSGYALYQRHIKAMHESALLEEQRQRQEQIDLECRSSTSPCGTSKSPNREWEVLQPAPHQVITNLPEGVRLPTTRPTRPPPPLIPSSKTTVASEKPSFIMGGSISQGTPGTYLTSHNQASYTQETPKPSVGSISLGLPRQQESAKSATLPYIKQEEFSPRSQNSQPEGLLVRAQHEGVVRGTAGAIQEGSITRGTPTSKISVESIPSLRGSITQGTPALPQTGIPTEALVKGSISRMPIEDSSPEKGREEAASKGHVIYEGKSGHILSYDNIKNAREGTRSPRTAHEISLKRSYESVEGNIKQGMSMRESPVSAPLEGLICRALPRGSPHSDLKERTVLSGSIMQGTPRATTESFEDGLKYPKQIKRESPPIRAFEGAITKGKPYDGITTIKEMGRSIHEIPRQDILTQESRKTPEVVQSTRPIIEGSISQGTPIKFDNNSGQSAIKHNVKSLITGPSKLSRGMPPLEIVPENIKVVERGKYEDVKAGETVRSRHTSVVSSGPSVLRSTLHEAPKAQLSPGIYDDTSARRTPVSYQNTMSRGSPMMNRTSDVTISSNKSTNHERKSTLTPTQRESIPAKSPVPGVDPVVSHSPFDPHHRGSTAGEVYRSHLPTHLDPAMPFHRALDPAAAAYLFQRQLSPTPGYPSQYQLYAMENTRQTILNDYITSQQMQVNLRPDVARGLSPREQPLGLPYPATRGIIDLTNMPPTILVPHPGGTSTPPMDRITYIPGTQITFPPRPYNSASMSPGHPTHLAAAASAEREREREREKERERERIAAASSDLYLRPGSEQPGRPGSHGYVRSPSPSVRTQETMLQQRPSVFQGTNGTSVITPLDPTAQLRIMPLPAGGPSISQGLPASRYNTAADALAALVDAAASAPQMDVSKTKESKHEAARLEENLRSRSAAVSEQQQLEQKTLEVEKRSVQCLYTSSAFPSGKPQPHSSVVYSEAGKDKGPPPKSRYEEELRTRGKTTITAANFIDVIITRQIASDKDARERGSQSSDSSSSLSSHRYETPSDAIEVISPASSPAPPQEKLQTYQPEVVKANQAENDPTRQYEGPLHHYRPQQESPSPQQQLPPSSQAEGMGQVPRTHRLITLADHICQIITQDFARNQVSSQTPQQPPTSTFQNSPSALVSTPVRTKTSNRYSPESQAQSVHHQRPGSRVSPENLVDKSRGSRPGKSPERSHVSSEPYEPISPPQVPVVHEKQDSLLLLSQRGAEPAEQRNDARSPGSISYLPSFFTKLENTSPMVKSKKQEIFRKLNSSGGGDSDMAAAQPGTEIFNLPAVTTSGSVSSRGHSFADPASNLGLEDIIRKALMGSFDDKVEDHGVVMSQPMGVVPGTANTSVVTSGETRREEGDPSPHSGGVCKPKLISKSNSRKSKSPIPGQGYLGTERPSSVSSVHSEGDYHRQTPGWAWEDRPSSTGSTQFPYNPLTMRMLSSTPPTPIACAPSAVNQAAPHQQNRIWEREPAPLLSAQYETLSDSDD

Experiments:
[1] = biological target: Heat shock cognate 71 kDa protein (Hsc70) (human (endogenous in U87-MG)) (UniProt P11142); assay: co-IP; U87-MG lysate (20 mM Tris pH 7.5, 150 mM NaCl, 1% Triton X-100, 1 mM EDTA, protease inhibitors); precipitated with anti-LAMP-2A or anti-Hsc70 antibody (IgG as control) and Protein G-agarose, overnight at 4 °C; N-CoR detected by western blot
[2] = biological target: Lysosome-associated membrane protein type 2A (LAMP-2A) (human (endogenous in U87-MG)) (UniProt P13473); assay: as above

binding [1]: binds
binding [2]: binds
Substance: Nuclear receptor co-repressor (N-CoR) (from UniProt O75376 1-2440)
